Test results: patent US20160046678A1 (ZYNGENIA, published 2016)
Results are given in words; binding and its absence hold for the method and conditions named. Some results given as binding are weak or reduced against the parent protein; the word gives no strength.

Target: ErbB2 (UniProt P04626)
Assay: MRD identification, Example 48

Question: Which binding does the source give for WSGWCEQDQKWNYCSGYI [EGB540] here?
Answer: binds

Question: How did the binding turn out when WSGWCFYEVRWGHCHGSI [EGB542] was run?
Answer: binds

Question: How did the binding turn out when WSGYCLSESGWGHCGGLL [EGB543] was run?
Answer: binds

Question: WSGWCLSYSGWGHCSGSP [EGB544] was tested. Which binding did it give?
Answer: binds

Question: With WSGWCFYGDYWGHCSGQP [EGB545] as the binder, how does the binding read?
Answer: binds

Question: For WSGWCFKITGWGHCSGLI [EGB546], which binding is on record?
Answer: binds

Question: How did the binding turn out when WSGWCENELQWSFCSGHI [EGB547] was run?
Answer: binds

Question: How did the binding turn out when WSGWCEGERQWSFCSGSI [EGB548] was run?
Answer: binds

Question: Which binding does the source give for WSGWCEYEFKWSFCSGHI [EGB549] here?
Answer: binds

Question: WSGWCEHEMYWSYCSGHK [EGB550] was tested. Which binding did it give?
Answer: binds

Question: WSGWCEGELRWFFCSGTL [EGB551] was tested. Which binding did it give?
Answer: binds

Question: Which binding does the source give for WSGWCFYGTHWGHCGGLP [EGB553] here?
Answer: binds

Question: Which binding does the source give for WSGWCFDGGRWGYCSGPL [EGB554] here?
Answer: binds

Question: WSGWCLKGDGWGHCWGLI [EGB555] was tested. Which binding did it give?
Answer: binds

Question: How did the binding turn out when WSGWCLRVSGWDHCSGHP [EGB556] was run?
Answer: binds

Question: For TDSWCHTLYWALQHCVAQE [EGB557], which binding is on record?
Answer: binds

Question: For WSGWCLMGDSWGHCSGLI [EGB558], which binding is on record?
Answer: binds

Question: How did the binding turn out when WSGWCEGEVGWFFCSGYL [EGB559] was run?
Answer: binds

Question: With WSGWCEYELQWSFCFGPS [EGB560] as the binder, how does the binding read?
Answer: binds

Question: How did the binding turn out when PDSSCHTLYWQLHHCARRE [EGB561] was run?
Answer: binds

Question: How did the binding turn out when WSGWCEGDLQWYYCSGHI [EGB562] was run?
Answer: binds

Question: Which binding does the source give for WSGWCEEALRWSYCSGHI [EGB563] here?
Answer: binds

Question: Which binding does the source give for WSGWCLGDAGWGHCGGLP [EGB565] here?
Answer: binds

Question: How did the binding turn out when WSGWCFFDTHWGHCSGLL [EGB566] was run?
Answer: binds

Question: How did the binding turn out when WSGWCFNHGAWGHCRGLI [EGB567] was run?
Answer: binds

Question: How did the binding turn out when WSGWCYEHTGWRHCHGLI [EGB568] was run?
Answer: binds

Question: Which binding does the source give for WSGWCLTREGWGHCKGLI [EGB569] here?
Answer: binds

Question: For WSGWCLSGVGWFHCKGMI [EGB570], which binding is on record?
Answer: binds

Question: Which binding does the source give for WSGWCEGESQWFFCSGLI [EGB571] here?
Answer: binds

Question: For WSGWCEYESHWSFCSGHI [EGB572], which binding is on record?
Answer: binds

Question: With WSGWCEGERKWSYCSGQI [EGB573] as the binder, how does the binding read?
Answer: binds

Question: Which binding does the source give for WSGWCEGELHWYSCSGHM [EGB574] here?
Answer: binds

Question: With PDSWCHTLYWDLLYCVNQE [EGB575] as the binder, how does the binding read?
Answer: binds

Question: With WSGWCETPCGWESCHGTI [EGB577] as the binder, how does the binding read?
Answer: binds

Question: How did the binding turn out when WSGWCESTDSWHFCRGNI [EGB579] was run?
Answer: binds

Question: How did the binding turn out when WSGWCETPSGWKACRGNI [EGB580] was run?
Answer: binds

Question: WSGWCETGVGWHECHGTI [EGB581] was tested. Which binding did it give?
Answer: binds

Question: With WSGWCEAERQWTFCSGHI [EGB582] as the binder, how does the binding read?
Answer: binds

Question: WSGWCENSEGWDFCNGTI [EGB583] was tested. Which binding did it give?
Answer: binds

Question: How did the binding turn out when WSGWCETQKGWHSCHGSI [EGB584] was run?
Answer: binds

Question: How did the binding turn out when WSGWCLTGTDWHFCRGFI [EGB585] was run?
Answer: binds

Question: With WSGWCETYKGWHACHGKI [EGB586] as the binder, how does the binding read?
Answer: binds

Question: How did the binding turn out when WSGWCETNAGWIQCYGSI [EGB587] was run?
Answer: binds

Question: With WSGWCQTGANWHYCNGTI [EGB588] as the binder, how does the binding read?
Answer: binds

Question: For WSGWCLADGMWGHCNGTI [EGB589], which binding is on record?
Answer: binds

Question: WSGWCEGRDAWYQCKGTI [EGB590] was tested. Which binding did it give?
Answer: binds

Question: For WSGYCLTDGTWHHCKGTI [EGB591], which binding is on record?
Answer: binds

Question: With WSGWCKTGKKWHHCGGTI [EGB592] as the binder, how does the binding read?
Answer: binds

Question: With WSGWCETSSGWHQCSGII [EGB593] as the binder, how does the binding read?
Answer: binds

Question: With WSGWCEEKGQWVSCGGSL [EGB595] as the binder, how does the binding read?
Answer: binds
